The text below walks through data of patent US20170280722A1, “COMPOSITIONS AND METHODS FOR CONTROL OF SAND FLIES AND OTHER BLOOD SUCKING INSECTS” (GENESIS LABORATORIES, INC., priority 2010, published 2017).

The series is described as follows: Consumption of insecticide treated feed by Rattus rattus. Conditions: for Consumption Day 1 / Consumption Day 2 / Consumption Day 3 / Consumption after decrease in Fipronil concentration Day 4 / Consumption after decrease in Fipronil concentration Day 5 / Feeding on treated food (palatability): R. rattus; for Consumption after decrease in Fipronil concentration Day 4 / Consumption after decrease in Fipronil concentration Day 5: Fip. 0.015% in chicken feed. In kind it is in vivo.

[1] abbreviates: Fip. 0.015% in chicken feed (so in the source), listed as Fip.
[2] abbreviates: Fip. 0.015% in chicken feed (so in the source), listed as Fip.
[3] abbreviates: R. rattus treatment group 250 ppm.

“And” between values parts separate entries of the source, which are not always exact repeats. Identical values can stand only once. “Also recorded” adds a separate entry of the source.

Take `O=C(NC(=O)c1c(F)cccc1F)Nc1ccc(Cl)cc1` [diflubenzuron]: the “Mean (±SEM) insecticide consumption” value (R. rattus treatment group 480 ppm) is 19.44 mg ± 0.85. Moreover, under “20 g feed offered daily, Diflu. 0.048% in chicken feed”, the “Consumption Day 1” value was 10 g and 9 g. In addition, for the setting “Diflu. 0.048% in chicken feed”, the “Consumption Day 2” value is 17 g and 15 g; the “Consumption Day 3” value is 16 g and 14 g.
Consider `N#Cc1nn(-c2c(Cl)cc(C(F)(F)F)cc2Cl)c(N)c1[S+]([O-])C(F)(F)F` (centres unmarked) [fipronil], for which the “Mean (±SEM) insecticide consumption” value (R. rattus treatment group 150 ppm) is 5.75 mg ± 0.80. Under setting [1], the “Consumption Day 1” value is 5 g, the “Consumption Day 2” value was 5 g and the “Consumption Day 3” value was 1 g. Under setting [2], the “Consumption Day 1” value was 9 g, the “Consumption Day 2” value is on record as 3 g and the “Consumption Day 3” value was determined as 2 g. For the same compound, where the note is “listed as Fip”, the “Consumption after decrease in Fipronil concentration Day 4” value was 8 g and the “Consumption after decrease in Fipronil concentration Day 5” value worked out at 9 g. In addition, for the setting “listed as Fip.”, the “Consumption after decrease in Fipronil concentration Day 4” value is listed as 7 g and the “Consumption after decrease in Fipronil concentration Day 5” value stood at 7 g. In addition, the “Feeding on treated food (palatability)” value (fipronil 0.025% (250 ppm), initial 3 day treatment period) was “feeding declined dramatically; also recorded: not readily consumed”. The “Feeding on treated food (palatability)” value (fipronil lowered to 0.015% (150 ppm), 2 extra days) is on record as “increased dramatically; also recorded: readily consumed”.
eprinomectin: under “R. rattus treatment group 100 ppm”, the “Mean (±SEM) insecticide consumption” value is 5.45 mg ± 0.25. Besides, under setting [3], the “Mean (±SEM) insecticide consumption” value was 3.95 mg ± 0.25. In addition, for the setting “Eprino 0.025% in chicken feed”, the “Consumption Day 1” value is 10 g and 12 g; the “Consumption Day 2” value was 7 g and 9 g; the “Consumption Day 3” value was 5 g and 3 g. Besides, under “Eprino. 0.01% in chicken feed”, the “Consumption Day 1” value is 10 g and 13 g; the “Consumption Day 2” value was 14 g and 17 g; the “Consumption Day 3” value is 13 g and 12 g.
As for ivermectin, under setting [3], the “Mean (±SEM) insecticide consumption” value was 6.0 mg ± 0.00. Besides, under “Iverm. 0.025% in chicken feed”, the “Consumption Day 1” value was determined as 9 g; the “Consumption Day 2” value was 12 g and 9 g; the “Consumption Day 3” value was 7 g and 6 g.
